Assay results published in article PMC5458067.
Results are given in words; binding and its absence hold for the method and conditions named. In cells and extracts the contact can be indirect. Some entries that bind do so weakly or less than the wild type.

By UniProt entry, the sequences of proteins in these tests, tags left out.
UniProt P04150: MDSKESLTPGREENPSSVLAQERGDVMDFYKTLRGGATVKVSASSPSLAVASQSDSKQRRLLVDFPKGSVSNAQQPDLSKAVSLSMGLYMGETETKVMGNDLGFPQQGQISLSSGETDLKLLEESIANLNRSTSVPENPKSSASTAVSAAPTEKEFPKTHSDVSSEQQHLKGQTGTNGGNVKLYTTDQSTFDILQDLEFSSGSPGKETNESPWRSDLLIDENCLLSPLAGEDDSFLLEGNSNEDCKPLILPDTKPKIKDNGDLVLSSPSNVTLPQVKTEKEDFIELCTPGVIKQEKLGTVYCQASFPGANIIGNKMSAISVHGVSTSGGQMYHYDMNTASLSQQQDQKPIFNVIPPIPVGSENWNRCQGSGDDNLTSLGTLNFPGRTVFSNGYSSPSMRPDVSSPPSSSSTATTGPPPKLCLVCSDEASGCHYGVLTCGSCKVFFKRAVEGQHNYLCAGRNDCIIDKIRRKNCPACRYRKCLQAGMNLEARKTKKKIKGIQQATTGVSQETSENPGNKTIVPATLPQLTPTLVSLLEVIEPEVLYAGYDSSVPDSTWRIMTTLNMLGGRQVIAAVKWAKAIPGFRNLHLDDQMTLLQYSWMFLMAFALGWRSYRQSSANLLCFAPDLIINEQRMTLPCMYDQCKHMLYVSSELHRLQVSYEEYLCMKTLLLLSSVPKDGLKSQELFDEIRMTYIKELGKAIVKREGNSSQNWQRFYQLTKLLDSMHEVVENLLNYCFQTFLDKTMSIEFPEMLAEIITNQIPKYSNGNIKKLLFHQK

Legend:
Experiment in all cases: co-IP
[1] = biological target: Flag-Hsp90α-Y627F (human) (UniProt P07900)
Flag-Hsp90α WT (human) = Flag-Hsp90α WT (human) (UniProt P07900)
[2] = biological target: Flag-Hsp90α-Y627E (human) (UniProt P07900)

| binding [2] | Substance | binding [1] | binding (Flag-Hsp90α WT (human)) |
| --- | --- | --- | --- |
|  | v-SRC (from UniProt P00524 1-526) | binds | binds |
| binds | glucocorticoid receptor (GR) (from UniProt P04150 1-777) | binds | binds |
